At least one compound was matched to its structure with a doubt left.
Test: Saturation concentration in dissolution media
Assay type: physicochemical
Details: phosphate buffered saline (PBS) aqueous solution at pH 7, 37° C.

## CCC(C)n1ncn(-c2ccc(N3CCN(c4ccc(OCC5COC(Cn6cncn6)(c6ccc(Cl)cc6Cl)O5)cc4)CC3)cc2)c1=O (stereo not shown) [itraconazole]
  saturation concentration: 33 mg/L

Source: patent US20250387326A1, “CRYSTALLINE PHARMACEUTICAL COMPOSITION FOR INHALATION COMPRISING SUGAR AND LIPID COMPOSITE PARTICLES AND PROCESS FOR MANUFACTURE” (priority 2022, published 2025)
